Cleaved PARP after 72 h of treatment

Drug key:
CP-690550, 5 µM: C[C@@H]1CCN(C(=O)CC#N)C[C@@H]1N(C)c1ncnc2[nH]ccc12
XAV939, 10 µM: Oc1nc(-c2ccc(C(F)(F)F)cc2)nc2c1CSCC2
sorafenib, 2 µM: CNC(=O)c1cc(Oc2ccc(NC(=O)Nc3ccc(Cl)c(C(F)(F)F)c3)cc2)ccn1
pazopanib, 2 µM: Cc1ccc(Nc2nccc(N(C)c3ccc4c(C)n(C)nc4c3)n2)cc1S(N)(=O)=O
GW9662, 10 µM: O=C(Nc1ccccc1)c1cc([N+](=O)[O-])ccc1Cl
AZD7762, 0.1 µM: NC(=O)Nc1cc(-c2cccc(F)c2)sc1C(=O)N[C@H]1CCCNC1
pioglitazone, 10 µM: CCc1ccc(CCOc2ccc(CC3SC(=O)NC3=O)cc2)nc1 (centres undefined)
TCS401, 8.33 µM: O=C(O)C(=O)Nc1sc2c(c1C(=O)O)CCNC2
midostaurin, 0.4 µM: CO[C@@H]1[C@H](N(C)C(=O)c2ccccc2)C[C@H]2O[C@]1(C)n1c3ccccc3c3c4c(c5c6ccccc6n2c5c31)C(=O)NC4

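The test systems are human melanoma cell lines, treated with a pair of drugs for 72 h and then stained and imaged. The read-out is the fraction of cleaved-PARP-positive nuclei, in % of that fraction in the DMSO control; 200 means twice the control level of this apoptosis marker. Every drug was used at one fixed concentration, the higher of two screened. The file gives one value for each pair and line, without errors, so small differences may be noise. The marker varies much from line to line, for technical or biological reasons.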 This is part of the screen, not chosen by result.

Pair	SK-MEL-2
GW9662 + AZD7762	308
sorafenib + pazopanib	139
midostaurin + pazopanib	252
XAV939 + pazopanib	71.3
TCS401 + pazopanib	113
XAV939 + GW9662	132
pioglitazone + CP-690550	169
TCS401 + GW9662	154
XAV939 + sorafenib	155
CP-690550 + GW9662	200
pioglitazone + midostaurin	270
TCS401 + XAV939	117
sorafenib + GW9662	113
midostaurin + XAV939	303
midostaurin + TCS401	124
GW9662 + midostaurin	756
AZD7762 + midostaurin	230
AZD7762 + pazopanib	68.8
pioglitazone + pazopanib	70.6
midostaurin + sorafenib	176
TCS401 + sorafenib	103
CP-690550 + midostaurin	63.5
CP-690550 + TCS401	78.8
CP-690550 + sorafenib	114
AZD7762 + pioglitazone	152
sorafenib + pioglitazone	154
pazopanib + GW9662	98.0
pazopanib + CP-690550	65.6
XAV939 + pioglitazone	121
TCS401 + pioglitazone	104
TCS401 + AZD7762	278
XAV939 + AZD7762	264
CP-690550 + XAV939	67.4
sorafenib + AZD7762	92.8
pioglitazone + GW9662	157

For reference, 3 entries once more:

| Pair | SK-MEL-2 |
|---|---|
| TCS401 + sorafenib | 103 |
| XAV939 + pioglitazone | 121 |
| sorafenib + AZD7762 | 92.8 |

Data from the primary screen of doi:10.1371/journal.pone.0140310, rounded.